From PMC12750958
No constants are given. Whether binding was seen depends on the method and setting. Binding seen in cells or lysates may run through a third protein. Some results given as binding are weak or reduced against the parent protein; the word gives no strength.

Target: p53 (human (endogenous in hAMSCs)) (UniProt P04637)
Assay: co-IP; RIPA lysate, sonicated, of P10 hAMSCs cocultured with or without PBLs (1:100); antibody (ab26, 1:100) on magnetic beads, lysate incubated overnight at 4 °C, washed four times with PBST, eluted by boiling in loading buffer, SDS-PAGE and blot

**Q.** “small ubiquitin-like modifier-1 (SUMO-1) (from UniProt P63165 1-97)” was tested. Which binding did it give?
**A.** binds
